This is one part of the list.
B1: il10ra_site1_sap_22_mot_HHH_b2_02043_000000010_0001_1_19_H_._HHH_b2_06980_0001_0000100001_0000001_0_0001_af2pred_dldesign_0_af2pred (protein)
chain: SSSSSALEALLDEIERLIEEGKLEEAKELLREATRLAIEANDPELLKRVLELAEKLKEKGSSSSS
B2: il10ra_site1_sap_13_mot_HHH_b1_00169_000000276_0001_1_18_H_._HHH_b2_07690_af2_0001_0000100004_0000001_0_0001 (protein)
chain: SSSSDASRRIYELLREAMELLDEGNPEEAEEVLEEAKELAEEANNLLFLLQIEFILREVTSSSSS
B3: il10ra_site1_normal_mot_HHH_b1_00814_af2_000000078_0001_43_57_H_._HHH_b2_00573_0001_0000100015_0000001_0_af2pred_0001 (protein)
chain: SSSSSSSEEEQVEELLEEARHIDDPKERFRVLREALEVASELGNPELFKLIREFVQEILSSSSSS
B4: il10ra_site1_normal_mot_HHH_b2_03328_af2_000000127_0001_1_19_H_._HHH_b1_08499_0001_0000200023_0000001_0 (protein)
chain: SSSSDVAEEAYELSRRAAELLYQGNPEEARELLEEAEELLKERGDHVILFAVRLLLRILNSSSSS
B5: il10ra_site1_sap_25_mot_2c1a291787c6f40772924d4e9068d803_0001_af2_000000222_0001_34_48_H_._HHH_b2_06714_0001_0000500021_0000001_0_0001 (protein)
chain: SSSSSDALERAWELAKRAAESDDPEEVRELREEVEEIAEEFNDPFVRYIAEAIELMEERLSSSSS
B6: il10ra_site1_normal_mot_HHH_b1_06994_000000193_0001_40_55_H_._HHH_b1_05015_0001_0000100004_0000002_0 (protein)
chain: SSSSSEREEHIEELARTLTELIEQVGSPFLRESLEILLELAEELGDPELERIIRELLEELNSSSS
B7: il10ra_site1_sap_19_mot_HHH_b2_00984_000000042_0001_1_20_H_._HHH_b1_00336_0001_0000600036_0000002_0_0001 (protein)
chain: SSSSSDEELRELARAAERLIRQVDDEKSTEALFLAIELLLERLGDEEIKEILERVEEFLSSSSSS
B8: il10ra_site1_normal_mot_HHH_b1_00992_000000182_0001_23_40_H_._HHH_b2_06940_0001_0000200017_0000003_0 (protein)
chain: SSSSDEEERYVELSFRFARFLFEAGDPEAARRILEAAKQIAERAGNEELLKEIERLEEELKSSSS
B9: il10ra_site1_normal_mot_HHH_b1_01821_000000158_0001_23_39_H_._HHH_b2_03455_af2_0001_0000400012_0000001_0 (protein)
chain: SSSSSDEEVEELEKEVEELLKQGNPEEALHVVFRAIRLAEELGDQELLQRLWELFREIAGSSSSS
B10: il10ra_site1_sap_18_mot_HHH_b1_08477_000000091_0001_40_57_H_._HHH_b1_01666_af2_0001_0000300011_0000001_0_0001 (protein)
chain: SSSSDERERFARLVQKALRLAFQRRDEEALQLLWELMHRFLRHGDPRILEELEELLEELEGSSSS
B11: il10ra_site1_sap_16_mot_HHH_b1_06341_af2_000000167_0001_17_35_H_._HHH_b1_02933_0001_0000200014_0000001_0_0001_af2pred_0001 (protein)
chain: SSSSSTDSTEVLRLIREALHIEDPEEAREVLEEAEEIARELGNEQLERAVETAKRAIERSSSSSS
B12: il10ra_site1_sap_19_mot_HHH_b2_03737_000000101_0001_1_20_H_._HHH_b2_06797_af2_0001_0000100002_0000001_0_0001 (protein)
chain: SSSSDEENKKSLKWAIEAVKRLLELGNHEEAELSARFLKRLIEDAGDEELREELEEVLEEGSSSS
B13: il10ra_site1_normal_mot_a6c796b944619e241e020fd597ddb6da_0001_af2_000000092_0001_15_31_H_._HHH_b2_00387_af2_0001_0000200008_0000001_0 (protein)
chain: SSSSSEEEQRVRALLFFAQDAAKTGNPEAAEITLEVAKEIAEENNDDELKRLIEEVEEEINSSSS
B14: il10ra_site1_normal_mot_HHH_b1_05056_000000217_0001_1_20_H_._HHH_b2_01983_0001_0000100001_0000001_1 (protein)
chain: SSSSSSDLEEEVEELLEEAKEIEDPEEAQRVLAEATHLALELGDEELLQLVWEVVKEHSSSSSSS
B15: il10ra_site1_sap_29_mot_HEEHE_1605_000000211_0001_40_56_H_._2012b86ae8029c2c8ab6d311e818aa61_0001_af2_0001_0000100002_0000001_0_0001_af2pred_0001 (protein)
chain: SSSSDREEELQRLIEELEKLLEEGDEEKLLKLLQELARAAQEANDPEATRVVLRVARELKSSSSS
B16: il10ra_site1_normal_mot_HHH_b2_05323_000000159_0001_1_18_H_._HHH_b2_06454_0001_0000100023_0000001_0 (protein)
chain: SSSSSDEEQELLELSLEAFRLLLRGNPEEARKVLEEAEELARELGNEQVLEIVEDQLQIASSSSS
B17: il10ra_site1_sap_26_mot_HHH_b1_06174_af2_000000107_0001_40_57_H_._527b127d34341fb70d6ba2ed43798e0e_0001_0001_0000400022_0000001_0_0001_af2pred_0001 (protein)
chain: SSSSSEELRELFELIRRLAHLANEDPEEARELLEEAKRLAEELNNDAAKAILEFIEKQLRSSSSS
B18: il10ra_site1_normal_mot_HHH_b1_05370_000000138_0001_1_16_H_._HHH_b1_01093_0001_0000200024_0000002_0 (protein)
chain: SSSSDEEYELAEEAIKEAIELFENGNPEEAERLLREVIEELEERGNEAVVWSLRHLLRVLRSSSS
B19: il10ra_site1_normal_mot_HHH_b1_05056_000000217_0001_1_20_H_._HHH_b2_06957_0001_0000400029_0000002_0 (protein)
chain: SSSSSSDELREEVEELLEEAKHIEDQRELAEVLQEASHLALRAGDAELLQEVWEVVKKLSSSSSS
B20: il10ra_site1_normal_mot_HHH_b1_00999_000000080_0001_41_55_H_._HHH_b1_01452_0001_0000100004_0000001_0 (protein)
chain: SSSSDEEEVREEVEELLEEAKHVPDPRELTRLLQEAVRLALELGDQELLRLVWKVVKELGSSSSS
B21: il10ra_site1_normal_mot_HHH_b2_00984_000000042_0001_1_20_H_._HHH_b2_06425_af2_0001_0000300011_0000001_0 (protein)
chain: SSSSDEELEEELRELIKEVKELLERGNYEEASRLAQEILRLIYRLGDEELLQELWEVIKRGSSSS
B22: il10ra_site1_sap_21_mot_HHH_b2_02463_af2_000000222_0001_1_19_H_._HHH_eva_0321_0002_0000300010_0000002_0_0001 (protein)
chain: SSSSDEELEERVRELLEEAREVDAERAYKLLKEAIELAIENRDPELERLVMEVIREWLKRSSSSS
B23: il10ra_site1_normal_mot_e933875d0a4b1ebfe8e667f01481c16a_0001_1_af2_000000222_0001_49_63_H_._HHH_b2_03167_0001_0000100007_0000001_0 (protein)
chain: SSSSDETYRISREAIEEASELFERGNPEEAERVVEEALEEVRELNDPAAVFALENLLRAINSSSS
B24: il10ra_site1_sap_11_mot_05ca327611f5605f0dd8494b449afcbf_0001_1_000000248_0001_35_51_H_._HHH_b1_05848_af2_0001_0000100009_0000001_0_0001_af2pred_0001 (protein)
chain: SSSSSSSELERLLEEIEEALERGDPQEALRLSREAVRLAAELNDEEVLEKLLELVKKIFSSSSSS
B25: il10ra_site1_normal_mot_HHH_b2_03328_af2_000000127_0001_1_19_H_._HHH_b1_03010_0001_0000100001_0000002_0 (protein)
chain: SSSSTEELYRLSRKAAELLAEGDKEEAEKVVEEALELAEELNNPNFLFAIRLLLESIEELSSSSS
B26: il10ra_site1_normal_mot_HHH_b2_02757_000000230_0001_1_19_H_._HHH_b2_07153_0001_0000100007_0000002_1 (protein)
chain: SSSSSSDEEEVEELLEEARHIEDREERAELLLEALRIAYEAKNPELIQLVWEAIREIYGSSSSSS
B27: il10ra_site1_sap_19_mot_0f4c98a20d629a3dc592d0b946cdb135_0001_1_000000277_0001_1_13_H_._HHH_b1_01110_0001_0000200012_0000001_0_0001_af2pred_0001 (protein)
chain: SSSSSDAAEEALRLLREALELLANGDEEQAREVLEEAEELVKEAGNLILKISIELALRQLNSSSS
B28: il10ra_site1_normal_mot_HHH_b1_08508_000000230_0001_42_56_H_._382ff8651c9ca8077dbaa913212a5f00_0001_0001_0000900015_0000001_0 (protein)
chain: SVILISIRYALRAGNPEAAERAIEIALRSAKEQNDPRAEELLEEILELVRNGNPEEAERLLEEIE
B29: il10ra_site1_normal_mot_HHH_b1_03353_af2_000000170_0001_1_18_H_._HHH_b2_01529_0001_0000100002_0000001_0 (protein)
chain: SSSSSEAYEVARKAIEKARRLLEEGDDEEAERVLEEAIEIAEELGNFAAVFALEHLLRVLRSSSS
B30: il10ra_site1_sap_15_mot_HHH_b2_00800_af2_000000047_0001_1_20_H_._HHH_b2_08274_af2_0001_0000500036_0000002_0_0001_af2pred_0001 (protein)
chain: SSSSSSEEKREQVEELLEEAKHIPDPLERAFVLVRAYALANRVNDPELKKLVREVAIELSSSSSS
B31: il10ra_site1_sap_23_mot_HHH_b1_08009_000000194_0001_1_19_H_._HHH_b2_08195_0001_0000400011_0000001_0_0001 (protein)
chain: SSSSDADELFREVKRLLEEAAEIPDPEEARKLLEEALELAEEAGNRVLAMNLEYMLRVLRSSSSS
B32: il10ra_site1_sap_22_mot_HHH_b1_04638_000000131_0001_21_38_H_._HHH_b1_03122_0001_0000200033_0000001_0_0001 (protein)
chain: SSSSDEEEAALRFWERLLKQALELGNERVLKSALRAARWLAEHANDPEALEVIEELAERGSSSSS
B33: il10ra_site1_sap_10_mot_HHH_b1_05704_af2_000000048_0001_1_18_H_._HHH_b2_04382_0001_0000100002_0000001_0_0001_af2pred_0001 (protein)
chain: SSSSSEEEERVELALRFVKFLLKAGDPEAARFFVEWALEKAKELGNEELEEEAEELLREARSSSS
B34: il10ra_site1_normal_mot_HHH_b2_07144_000000289_0001_1_18_H_._HHH_b2_07034_0001_0000100011_0000002_1 (protein)
chain: SSSSDSEEIYRLSREAAELLREGNPEEAEEVLEEALRLAEEAGNFSILFNLEHLLRDIRGSSSSS
B35: il10ra_site1_sap_13_mot_HHH_b1_06881_000000249_0001_1_19_H_._1c3f67cdea6c6d4fbd4c31e186659400_0001_af2_0001_0000100004_0000001_0_0001 (protein)
chain: SSSSSDNEEALRLSVEAFRLALRGDPEEAREVLEEALELAERAGNERLAEIIEDLLRLLSSSSSS
B36: il10ra_site1_sap_22_mot_HHH_b2_00345_af2_000000013_0001_42_56_H_._3a0bc7445a4fb29c41f626ef8957750b_0001_0001_0000200007_0000001_1_0001 (protein)
chain: SSSSSEEHQEALRLSIRLMRALFRGDEEEAEKLLEKLEELAKEVGDPELELAVRAAKISLSSSSS
B37: il10ra_site1_normal_mot_HHH_b2_06795_000000133_0001_42_56_H_._HHH_b1_01903_0001_0000100008_0000001_0_af2pred_0001 (protein)
chain: SSSSDDDERLVRLAIKIAERLLEEGDPEAARFLVEAAKQIAEKLNNPELLELLEELLEEIRSSSS

Biological target: il10ra, Q13651
Test: yeast display titration

Apparent Kd, inactive:
B1 no binding seen
B2 no binding seen
B3 no binding seen
B4 no binding seen
B5 no binding seen
B6 no binding seen
B7 no binding seen
B8 no binding seen
B9 no binding seen
B10 no binding seen
B11 no binding seen
B12 no binding seen
B13 no binding seen
B14 no binding seen
B15 no binding seen
B16 no binding seen
B17 no binding seen
B18 no binding seen
B19 no binding seen
B20 no binding seen
B21 no binding seen
B22 no binding seen
B23 no binding seen
B24 no binding seen
B25 no binding seen
B26 no binding seen
B27 no binding seen
B28 no binding seen
B29 > 826 nM
B30 no binding seen
B31 no binding seen
B32 no binding seen
B33 no binding seen
B34 no binding seen
B35 no binding seen
B36 no binding seen
B37 no binding seen

Quoted at random: 2 entries already listed.
Apparent Kd, inactive:
B16 no binding seen
B4 no binding seen

Source: PMC10163288
